From PubChem BioAssay record AID1053133 (Broad Institute, 2014).

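Plate-reader measure of the Venus reporter marking one vaccinia stage in infected cells (the cell line is not named here); read time unknown. The test concentration is not given here. Percent change in Venus reporter signal; lower (more negative) values mean stronger inhibition of that viral stage.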

Values are in %. How 0% and 100% were set is not given here. Common to all entries: measured here: Venus reporter, other viral stage. Part of the compounds only, not a random draw; the main read-out is not listed here.

| structure | activity change (Venus) (%) |
|---|---|
| `O=S(=O)(c1ccc(F)cc1)N1C[C@@H]2[C@H](c3ccccc31)[C@@H](CO)N2Cc1ccc2c(c1)OCO2` | -22.07 |
| `C[C@@H]1CN([C@@H](C)CO)C(=O)c2cc(NC(=O)c3ccncc3)ccc2O[C@@H](C)CCCCO[C@H]1CN(C)Cc1ccc(C(F)(F)F)cc1` | -63.43 |
| `C[C@@H]1CCCCO[C@@H](CN(C)C(=O)Cc2ccccc2)[C@H](C)CN([C@H](C)CO)C(=O)c2cc(NC(=O)c3ccccc3)ccc2O1` | -50.95 |
| `Cc1ccc(S(=O)(=O)N(C)C[C@@H]2Oc3cc(Br)ccc3S(=O)(=O)N([C@@H](C)CO)C[C@@H]2C)cc1` | -42.33 |
| `O=C(c1cccc(F)c1)N1CCCCN2[C@H](C1)[C@@H](c1ccc(-c3ccc(F)cc3)cc1)[C@@H]2CO` | -54.74 |
| `C[C@@H]1CN([C@@H](C)CO)S(=O)(=O)c2ccc(-c3ccncc3)cc2O[C@@H]1CN(C)Cc1ccc(Oc2ccccc2)cc1` | -50.86 |
| `C[C@@H]1CN([C@H](C)CO)S(=O)(=O)c2ccc(-c3ccncc3)cc2O[C@@H]1CN(C)C(=O)Nc1ccc(C(F)(F)F)cc1` | -31.31 |
| `C[C@@H]1CN([C@H](C)CO)S(=O)(=O)c2ccc(C#Cc3ccccc3)cc2O[C@@H]1CN(C)C(=O)C1CC1` | -35.96 |
| `COc1cccc(-c2ccc3c(c2)O[C@H](CN(C)Cc2cccnc2)[C@@H](C)CN([C@H](C)CO)S3(=O)=O)c1` | -41.38 |
| `C[C@@H]1CN([C@@H](C)CO)C(=O)c2cc(NC(=O)Cc3cn(C)c4ccccc34)ccc2O[C@@H]1CN(C)CC1CCCCC1` | -49.12 |
| `C[C@@H]1CN([C@H](C)CO)S(=O)(=O)c2ccc(/C=C/c3ccccc3)cc2O[C@@H]1CN(C)C(=O)NC1CCCCC1` | -38.12 |
| `C[C@H]1CCCCO[C@H](CN(C)C(=O)c2ccccc2)[C@@H](C)CN([C@@H](C)CO)C(=O)c2cc(NS(=O)(=O)c3ccc(Cl)cc3)ccc2O1` | -32.45 |
| `C[C@H](CO)N1C[C@H](C)[C@H](CN(C)Cc2ccc3c(c2)OCO3)OCCCC[C@H](C)Oc2ccc(NC(=O)c3ccccc3)cc2C1=O` | -38.27 |
| `CN(C)CC(=O)N1CCCCN2[C@H](CO)[C@H](c3ccc(/C=C/c4ccccc4)cc3)[C@@H]2C1` | -60.93 |
| `COc1ccc(C#Cc2cnc3c(c2)C(=O)N([C@H](C)CO)C[C@@H](C)[C@H](CN(C)CC2CCCC2)O3)cc1` | -50.12 |
| `O=C(Nc1cc(F)ccc1F)N1CC(=O)N2[C@H](CO)[C@@H](c3ccc(C#CC4CCCCC4)cc3)[C@H]2C1` | -60.97 |
| `CC(C)CC#Cc1ccc2c(c1)O[C@H](CN(C)Cc1ccc3c(c1)OCO3)[C@@H](C)CN([C@H](C)CO)S2(=O)=O` | -47.66 |
| `C[C@H]1CN([C@@H](C)CO)C(=O)c2cccc(NC(=O)Nc3ccc4c(c3)OCO4)c2O[C@@H]1CN(C)Cc1ccc(Cl)c(Cl)c1` | -37.56 |
| `CNC[C@@H]1Oc2cc(C#CC3CCCCC3)ccc2S(=O)(=O)N([C@@H](C)CO)C[C@H]1C` | -51.89 |
| `O=S(=O)(c1ccccc1)N1CCCCN2[C@H](CO)[C@H](c3ccc(-c4ccccc4)cc3)[C@@H]2C1` | -34.12 |
| `C[C@@H]1CN([C@H](C)CO)C(=O)Cc2cc(NC(=O)NC3CCCCC3)ccc2O[C@@H]1CN(C)Cc1ccc(Oc2ccccc2)cc1` | -31.27 |
| `O=C(c1ccc2c(c1)OCO2)N1CCCCN2[C@H](C1)[C@@H](c1ccc(-c3ccccc3)cc1)[C@@H]2CO` | -51.15 |
| `O=C(C[C@H]1CC[C@H]2[C@@H](COC[C@@H](O)CN2Cc2ccc(Oc3ccccc3)cc2)O1)N1CCCCC1` | -40.86 |
| `C[C@H](CO)N1C[C@H](C)[C@@H](CN(C)C(=O)C2CCCCC2)OCCCC[C@H](C)Oc2ccc(NS(=O)(=O)c3ccc(Cl)cc3)cc2C1=O` | -56.37 |
| `Cc1ccc(S(=O)(=O)Nc2ccc3c(c2)C(=O)N([C@@H](C)CO)C[C@@H](C)[C@H](CN(C)C(=O)C2CCCCC2)OCCCC[C@@H](C)O3)cc1` | -43.42 |
| `CO[C@@H]1CN(C)C(=O)c2cc(NC(=O)c3ccc(Oc4ccccc4)cc3)ccc2OC[C@@H](C)NC[C@H]1C` | -70.44 |
| `C[C@@H]1CN([C@H](C)CO)C(=O)Cc2cc(NS(=O)(=O)c3ccccc3)ccc2O[C@@H]1CN(C)Cc1ccc(Cl)c(Cl)c1` | -87.77 |
| `C[C@H](CO)N1C[C@H](C)[C@H](CN(C)Cc2ccccc2)Oc2ncc(/C=C/c3ccccc3)cc2C1=O` | -45.39 |
| `Cc1ccc(S(=O)(=O)N(C)C[C@@H]2OCCCC[C@H](C)Oc3ccc(NS(=O)(=O)c4ccc(Cl)cc4)cc3C(=O)N([C@H](C)CO)C[C@@H]2C)cc1` | -33.7 |
| `C[C@@H]1CN([C@@H](C)CO)C(=O)c2cc(C#CCc3ccccc3)cnc2O[C@@H]1CN(C)Cc1ccccc1` | -18.12 |
| `C[C@H]1CN([C@@H](C)CO)S(=O)(=O)c2ccc(C#CC3(O)CCCC3)cc2O[C@@H]1CN(C)C(=O)Nc1cccc(F)c1` | -42.25 |
| `C[C@H](CO)N1C[C@H](C)[C@H](CN(C)S(=O)(=O)c2ccc(Cl)cc2)OCCCC[C@H](C)Oc2ccc(NS(=O)(=O)c3ccccc3)cc2C1=O` | -31.98 |
| `Cc1ccccc1-c1ccc(C2[C@@H]3CN(C(=O)Nc4cccc(F)c4)C[C@H]2N3)cc1` (stereo not given in full) | -38.93 |
| `O=C(NC1CCCC1)N1CCCCN2[C@@H](CO)[C@H](c3ccc(-c4ccccc4)cc3)[C@@H]2C1` | -33.67 |
| `COc1cccc(C#Cc2ccc3c(c2)O[C@@H](CN(C)C)[C@H](C)CN([C@@H](C)CO)S3(=O)=O)c1` | -50 |
| `C[C@@H]1CN([C@@H](C)CO)S(=O)(=O)c2ccc(C#Cc3ccc(F)cc3)cc2O[C@H]1CN(C)S(C)(=O)=O` | -49.67 |
| `Cc1ccc(S(=O)(=O)N[C@H]2C=C[C@H](CC(=O)NCc3ccc(Cl)c(Cl)c3)O[C@H]2CO)cc1` | -24.78 |
| `C[C@@H]1CN([C@H](C)CO)C(=O)c2cc(C#CCC3CCCC3)cnc2O[C@H]1CN(C)Cc1ccccn1` | -28.07 |
| `Cc1ccccc1S(=O)(=O)N1[C@H](C#N)[C@H](c2ccc(C#CC3CCCCC3)cc2)[C@@H]1CO` | -30.69 |
| `Cc1ccc(S(=O)(=O)Nc2cccc3c2O[C@@H](CN(C)C(=O)Nc2ccc(C(F)(F)F)cc2)[C@@H](C)CN([C@@H](C)CO)C3=O)cc1` | -37.83 |
| `C[C@H]1CCCCO[C@H](CN(C)Cc2ccccc2)[C@@H](C)CN([C@@H](C)CO)C(=O)c2cc(NC(=O)C3CCCCC3)ccc2O1` | -49.23 |
| `C[C@H]1CCCCO[C@@H](CN(C)Cc2ccc3c(c2)OCO3)[C@@H](C)CN([C@@H](C)CO)C(=O)c2cc(NC(=O)CCC(F)(F)F)ccc2O1` | -25.72 |
| `COc1ccc(S(=O)(=O)N(C)C[C@@H]2OCCCC[C@@H](C)Oc3ccc(NS(=O)(=O)c4cccs4)cc3C(=O)N([C@H](C)CO)C[C@H]2C)cc1` | -39.62 |
| `COc1cccc(NC(=O)N2CC(=O)N3[C@H](CO)[C@H](c4ccc(C5=CCCC5)cc4)[C@@H]3C2)c1` | -34.52 |
| `N#Cc1cccc(-c2ccc(C3[C@@H]4CN(C(=O)Cc5ccncc5)C[C@H]3N4)cc2)c1` (stereo not given in full) | -60.21 |
| `C[C@H]1CN([C@@H](C)CO)C(=O)Cc2cc(NC(=O)Nc3ccc(F)cc3)ccc2O[C@@H]1CN(C)Cc1ccc(Cl)c(Cl)c1` | -41.25 |
| `CN1c2ccc(-c3ccccc3F)cc2[C@H]2[C@H](CCN2C(=O)Nc2ccc(F)cc2)[C@H]1CO` | -43.6 |
| `CCC(=O)N1CC(=O)N2[C@H](C1)[C@H](c1ccc(C#CC3CCCCC3)cc1)[C@@H]2CO` | -75.65 |
| `C/C=C/c1ccc(C2[C@@H]3CN(S(=O)(=O)c4ccc(F)cc4)C[C@H]2N3)cc1` (stereo not given in full) | -29.9 |
| `COc1ccc(NC(=O)N2CCCCN3[C@H](CO)[C@H](c4ccc(C5=CCCC5)cc4)[C@H]3C2)cc1` | -58.1 |
| `C[C@H]1CN([C@@H](C)CO)S(=O)(=O)c2ccc(C3=CCCCC3)cc2O[C@@H]1CN(C)C(=O)c1ccccc1` | -32.85 |
| `Cc1noc(C)c1S(=O)(=O)Nc1ccc2c(c1)C(=O)N([C@@H](C)CO)C[C@@H](C)[C@@H](CN(C)S(=O)(=O)c1ccc(Cl)cc1)OCCCC[C@@H](C)O2` | -56.24 |
| `C[C@@H]1CN([C@@H](C)CO)S(=O)(=O)c2ccc(C#CC3CC3)cc2O[C@H]1CN(C)C(=O)c1cccc(F)c1` | -34.92 |
| `C[C@H]1CN([C@@H](C)CO)C(=O)c2cc(C#Cc3ccccc3)cnc2O[C@@H]1CN(C)S(=O)(=O)c1ccccc1F` | -20.06 |
| `Cc1ccc(S(=O)(=O)Nc2ccc3c(c2)C(=O)N([C@H](C)CO)C[C@@H](C)[C@H](CN(C)C(=O)C2CCCCC2)OCCCC[C@@H](C)O3)cc1` | -59.2 |
| `CO[C@@H]1CN(C)C(=O)c2cc(NC(=O)C3CC3)ccc2OC[C@@H](C)N(C(=O)Nc2ccc(C(F)(F)F)cc2)C[C@H]1C` | -34.26 |
| `C[C@@H]1CN([C@H](C)CO)C(=O)Cc2cc(NC(=O)CCCN(C)C)ccc2O[C@@H]1CN(C)Cc1ccc(-c2ccccc2)cc1` | -63.18 |
| `C[C@H]1CN([C@@H](C)CO)C(=O)c2cccc(NC(=O)NC3CCCCC3)c2O[C@H]1CN(C)Cc1ccc(Cl)c(Cl)c1` | -39.96 |
| `C[C@H](CO)N1C[C@H](C)[C@H](CN(C)Cc2ccc(Oc3ccccc3)cc2)Oc2c(NC(=O)Nc3ccc(C(F)(F)F)cc3)cccc2C1=O` | -26.39 |

Some entries from above, unchanged:

structure	activity change (Venus) (%)
C[C@@H]1CN([C@H](C)CO)C(=O)Cc2cc(NC(=O)NC3CCCCC3)ccc2O[C@@H]1CN(C)Cc1ccc(Oc2ccccc2)cc1	-31.27
Cc1ccc(S(=O)(=O)N(C)C[C@@H]2Oc3cc(Br)ccc3S(=O)(=O)N([C@@H](C)CO)C[C@@H]2C)cc1	-42.33
Cc1ccccc1-c1ccc(C2[C@@H]3CN(C(=O)Nc4cccc(F)c4)C[C@H]2N3)cc1 (stereo not given in full)	-38.93